No constants are given. Whether binding was seen depends on the method and setting. In cells and extracts the contact can be indirect. Some entries that bind do so weakly or less than the wild type. For part of these data: Tags and fused reporters may be left off the sequences shown.
Legend:
[1] = target: srGAP1-Flag (UniProt Q7Z6B7); experiment: co-IP; LoVo cells (endogenous Robo1) cotransfected with Robo1-HA, srGAP1-Flag and/or USP33-GFP; IP lysis buffer (1% Triton-100, 10% glycerol, 1 mM EDTA in TBS); IP with anti-Flag, immunoblot
[2] = target: Robo1-HA (UniProt Q9Y6N7); experiment: co-IP; LoVo cells transfected with Robo1-HA and srGAP1-GFP; lysed 48 h after transfection in IP lysis buffer (1% Triton-100, 10% glycerol, 1 mM EDTA in TBS); IP with anti-HA, immunoblot
[3] = target: endogenous Robo1 of LoVo cells (human (endogenous in LoVo)) (UniProt Q9Y6N7); experiment: co-IP; LoVo cells (endogenous Robo1) cotransfected with Robo1-HA, srGAP1-Flag and/or USP33-GFP; IP lysis buffer (1% Triton-100, 10% glycerol, 1 mM EDTA in TBS); IP with anti-Flag, immunoblot

By UniProt entry, the sequences of proteins in these tests, tags left out. Residues count along the entry.
UniProt Q7Z6B7: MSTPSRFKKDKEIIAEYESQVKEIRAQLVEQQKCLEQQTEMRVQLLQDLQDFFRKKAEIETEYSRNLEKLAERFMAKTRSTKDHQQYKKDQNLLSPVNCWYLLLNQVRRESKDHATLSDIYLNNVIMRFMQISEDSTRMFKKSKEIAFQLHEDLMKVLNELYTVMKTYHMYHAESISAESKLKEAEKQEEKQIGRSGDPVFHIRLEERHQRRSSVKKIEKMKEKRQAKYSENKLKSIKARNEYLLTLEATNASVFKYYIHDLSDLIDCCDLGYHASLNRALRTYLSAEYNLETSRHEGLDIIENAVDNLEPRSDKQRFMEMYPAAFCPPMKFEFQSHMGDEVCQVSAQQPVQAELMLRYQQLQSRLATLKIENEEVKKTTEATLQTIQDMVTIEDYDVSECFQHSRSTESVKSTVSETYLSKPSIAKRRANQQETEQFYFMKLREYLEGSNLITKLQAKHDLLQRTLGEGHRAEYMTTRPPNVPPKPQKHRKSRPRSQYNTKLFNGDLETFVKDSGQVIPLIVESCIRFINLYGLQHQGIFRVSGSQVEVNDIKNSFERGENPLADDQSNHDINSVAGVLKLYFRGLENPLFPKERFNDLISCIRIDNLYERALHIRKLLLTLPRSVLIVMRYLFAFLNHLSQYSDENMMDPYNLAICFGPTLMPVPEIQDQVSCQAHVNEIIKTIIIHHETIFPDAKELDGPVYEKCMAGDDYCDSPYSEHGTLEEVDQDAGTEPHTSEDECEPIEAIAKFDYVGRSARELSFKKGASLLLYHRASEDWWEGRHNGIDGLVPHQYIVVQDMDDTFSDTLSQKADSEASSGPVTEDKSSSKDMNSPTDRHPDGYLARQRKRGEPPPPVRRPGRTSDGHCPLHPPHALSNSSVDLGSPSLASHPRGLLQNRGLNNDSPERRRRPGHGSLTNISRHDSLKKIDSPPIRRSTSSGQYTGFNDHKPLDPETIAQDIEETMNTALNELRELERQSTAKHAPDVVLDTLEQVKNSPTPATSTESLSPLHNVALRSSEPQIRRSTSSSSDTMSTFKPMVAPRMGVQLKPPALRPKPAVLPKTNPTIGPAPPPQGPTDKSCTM
UniProt Q9Y6N7, residues 26-1651: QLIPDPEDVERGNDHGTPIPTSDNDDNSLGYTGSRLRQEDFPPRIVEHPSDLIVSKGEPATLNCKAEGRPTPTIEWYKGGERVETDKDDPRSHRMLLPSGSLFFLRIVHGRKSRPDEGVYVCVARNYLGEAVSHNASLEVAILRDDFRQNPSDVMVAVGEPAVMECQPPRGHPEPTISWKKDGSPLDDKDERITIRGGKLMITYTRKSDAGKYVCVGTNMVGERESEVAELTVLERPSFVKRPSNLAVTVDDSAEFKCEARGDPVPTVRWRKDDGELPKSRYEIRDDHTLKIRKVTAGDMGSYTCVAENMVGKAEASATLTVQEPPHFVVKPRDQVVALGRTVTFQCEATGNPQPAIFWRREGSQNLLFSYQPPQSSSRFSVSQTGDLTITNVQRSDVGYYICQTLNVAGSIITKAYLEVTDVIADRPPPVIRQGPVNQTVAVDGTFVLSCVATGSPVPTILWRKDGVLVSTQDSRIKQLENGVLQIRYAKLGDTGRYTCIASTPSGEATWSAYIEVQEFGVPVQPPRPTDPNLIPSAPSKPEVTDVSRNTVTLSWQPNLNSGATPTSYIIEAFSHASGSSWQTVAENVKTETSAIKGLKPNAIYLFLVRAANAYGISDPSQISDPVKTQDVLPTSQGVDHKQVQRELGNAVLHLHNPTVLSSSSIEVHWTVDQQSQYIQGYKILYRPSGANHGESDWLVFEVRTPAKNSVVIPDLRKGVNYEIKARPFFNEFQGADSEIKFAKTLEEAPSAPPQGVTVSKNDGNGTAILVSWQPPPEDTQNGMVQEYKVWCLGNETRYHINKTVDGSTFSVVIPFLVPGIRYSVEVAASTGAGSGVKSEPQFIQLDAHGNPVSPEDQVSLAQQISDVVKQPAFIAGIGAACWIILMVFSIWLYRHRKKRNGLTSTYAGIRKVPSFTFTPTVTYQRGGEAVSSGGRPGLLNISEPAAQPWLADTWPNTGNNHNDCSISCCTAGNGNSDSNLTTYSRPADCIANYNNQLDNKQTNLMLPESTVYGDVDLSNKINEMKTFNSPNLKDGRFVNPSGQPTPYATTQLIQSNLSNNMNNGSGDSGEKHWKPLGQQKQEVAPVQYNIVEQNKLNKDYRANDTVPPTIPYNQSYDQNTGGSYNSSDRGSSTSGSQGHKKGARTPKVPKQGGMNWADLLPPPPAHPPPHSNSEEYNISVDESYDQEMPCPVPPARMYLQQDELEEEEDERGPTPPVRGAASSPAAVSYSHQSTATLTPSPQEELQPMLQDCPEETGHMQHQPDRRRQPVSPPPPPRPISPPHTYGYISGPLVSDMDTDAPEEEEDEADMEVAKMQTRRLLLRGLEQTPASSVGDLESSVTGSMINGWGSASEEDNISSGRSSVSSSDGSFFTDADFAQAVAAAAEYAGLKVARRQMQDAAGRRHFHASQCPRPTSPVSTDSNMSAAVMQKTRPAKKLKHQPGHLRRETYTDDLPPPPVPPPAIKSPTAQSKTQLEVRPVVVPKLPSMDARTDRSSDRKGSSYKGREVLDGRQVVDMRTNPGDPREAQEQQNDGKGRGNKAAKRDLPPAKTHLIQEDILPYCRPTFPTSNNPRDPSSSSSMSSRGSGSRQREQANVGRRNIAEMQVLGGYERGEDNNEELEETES

With “endogenous Robo1 of LoVo cells (from UniProt Q9Y6N7 26-1651) (receptor)” the binding [1] was “binds”.

srGAP1-GFP (from UniProt Q7Z6B7 1-1085) was tested, and the binding [2] was “binds”.

B1: USP33-GFP (enzyme, UniProt Q8TEY7 1-942)
chain: MTGSNSHITILTLKVLPHFESLGKQEKIPNKMSAFRNHCPHLDSVGEITKEDLIQKSLGTCQDCKVQGPNLWACLENRCSYVGCGESQVDHSTIHSQETKHYLTVNLTTLRVWCYACSKEVFLDRKLGTQPSLPHVRQPHQIQENSVQDFKIPSNTTLKTPLVAVFDDLDIEADEEDELRARGLTGLKNIGNTCYMNAALQALSNCPPLTQFFLDCGGLARTDKKPAICKSYLKLMTELWHKSRPGSVVPTTLFQGIKTVNPTFRGYSQQDAQEFLRCLMDLLHEELKEQVMEVEEDPQTITTEETMEEDKSQSDVDFQSCESCSNSDRAENENGSRCFSEDNNETTMLIQDDENNSEMSKDWQKEKMCNKINKVNSEGEFDKDRDSISETVDLNNQETVKVQIHSRASEYITDVHSNDLSTPQILPSNEGVNPRLSASPPKSGNLWPGLAPPHKKAQSASPKRKKQHKKYRSVISDIFDGTIISSVQCLTCDRVSVTLETFQDLSLPIPGKEDLAKLHSSSHPTSIVKAGSCGEAYAPQGWIAFFMEYVKRFVVSCVPSWFWGPVVTLQDCLAAFFARDELKGDNMYSCEKCKKLRNGVKFCKVQNFPEILCIHLKRFRHELMFSTKISTHVSFPLEGLDLQPFLAKDSPAQIVTYDLLSVICHHGTASSGHYIAYCRNNLNNLWYEFDDQSVTEVSESTVQNAEAYVLFYRKSSEEAQKERRRISNLLNIMEPSLLQFYISRQWLNKFKTFAEPGPISNNDFLCIHGGVPPRKAGYIEDLVLMLPQNIWDNLYSRYGGGPAVNHLYICHTCQIEAEKIEKRRKTELEIFIRLNRAFQKEDSPATFYCISMQWFREWESFVKGKDGDPPGPIDNTKIAVTKCGNVMLRQGADSGQISEETWNFLQSIYGGGPEVILRPPVVHVDPDILQAEEKIEVETRSL
With B1 the binding [3] was “binds”.

Reference: paper PMC5142155
